# The campaign covered roughly 330,000 compounds. About 7,700 (2.3%) were called active. Inconclusive means that the source gave no clear call. Such entries were picked first, then a sample of the others. Calls come from the whole dose curve; as a rule, active = well fitted inhibition curve with a large enough effect; inconclusive = small, poorly fitted or top-dose-only effect, or effect the other way; inactive = flat fitted curve, though single readings scatter. Potencies beside an inconclusive call are fits to weak or partial responses and may not hold up.
# Test: qHTS screen for small molecules that inhibit ELG1-dependent DNA repair in human embryonic kidney (HEK293T) cells expressing luciferase-tagged ELG1; note: nearly all actives have a fitted effect of over 55% in size
# Details: HEK293T ELG1-luciferase reporter, luminescence, 16 h, DNA damage induced by 5-fluorouridine; activity change, negative = inhibition: at 46.1 µM (top of the series)
# Summary of the method: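 Overnight (16 hr) co-exposure of 2,000 cells/well to 5-fluorouridine and compound at 37 °C preceded detection. Luciferase was quantified via ONE-Glo luminescence; loss of signal denotes inhibition.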
# % is set by controls: 0 for no effect and ±100 for the full control effect; potency is the fitted concentration of half-maximal effect.
Compound,Potency,"activity change, negative = inhibition"
CC1=C(C(=O)OCc2ccccc2)C(c2ccccc2OC(F)F)NC(=O)N1 (centres undefined),"inconclusive: 23.1 µM [inhibitor, single point]",
CC(C)NC(=O)CS(=O)(=O)c1ccccc1,,inactive: -0.422%
COC(CNC(=O)c1ccc(N2CCc3ccccc32)c([N+](=O)[O-])c1)OC,"inconclusive: 23.1 µM [inhibitor, partial curve, poor fit]",
COc1ccc(NC(=O)CSc2n[nH]c(CNc3cccc(C)c3)n2)cc1,,inactive: -6.79%
CCn1c(-c2cc(OC)ccc2OC)csc1=Nc1c(C)n(C)n(-c2ccccc2)c1=O,"inconclusive: 8.2 µM [inhibitor, partial curve]",
Cn1c(=O)c2c(SCC(=O)NCc3ccco3)nc(CC(C)(C)C)nc2n(C)c1=O,"inconclusive: 29.1 µM [inhibitor, single point]",
N/C(=N\OC(=O)Cc1cccs1)c1ccccc1,"inconclusive: 16.4 µM [activator, partial curve]",
Cc1ccn(CC(=O)NC2CCCN(Cc3ccc(CC(C)C)cc3)C2)n1 (centres undefined),,inactive: 1.58%
CCOC(=O)C1=CSC2=NS(=O)(=O)CCN12,"inconclusive: 0.631 µM [activator, partial curve, poor fit]",
Cc1cc(C(=O)Nc2nnc(C3CCCCC3)s2)cs1,"inconclusive: 7.31 µM [activator, partial curve, poor fit]",
CC1Oc2ccccc2N(CC(=O)N2CCCCC2)C1=O (centres undefined),"inconclusive: 1.16 µM [inhibitor, single point]",
CCC(NC(=O)Nc1cc(C)on1)(C(F)(F)F)C(F)(F)F,"inconclusive: 29.1 µM [inhibitor, partial curve, poor fit]",
CC(C)c1nc2sc3c(c2c(=O)o1)CCCC3,,inactive: 16%
N#Cc1ccc(C(=O)NNC(=O)c2ccncc2)cc1,,inactive: -3.81%
Cc1ccc(S(=O)(=O)N2CCN(CC(=O)NCC3(N4CCOCC4)CCCCC3)CC2)cc1,,inactive: -2.91%
Cc1cc(C)c(C)c(Cn2c(CO)nc3ccccc32)c1C,"inconclusive: 20.6 µM [activator, single point]",
O=C(COC(=O)c1ccc2ncsc2c1)NCc1ccc(F)cc1,"inconclusive: 0.326 µM [activator, partial curve, poor fit]",
CCCSc1ccc(-c2nn(-c3ccccc3)cc2/C=C(/C#N)C(=O)NCCCOC)cc1,,inactive: 10.7%
Cc1cc(C)n2nc(SCC(=O)Nc3ccccc3)nc2n1,,inactive: -2.17%
CCCC(NS(=O)(=O)c1ccc(-c2ccc(=O)[nH]n2)s1)c1cccs1 (centres undefined),"inconclusive: 18.3 µM [activator, single point]",
N#CCC(=O)Nc1ccc(C(=O)NNC(=O)c2ccccc2-n2cccc2)cc1,,inactive: 5.14%
CCCCCCSc1cc(-c2nc3cc(C)ccn3c2NC2CCCCC2)ccc1OC,"inconclusive: 35.5 µM [inhibitor, single point]",
CC(C)(C)OC(=O)NCCc1nnc(S(=O)(=O)Cc2ccc(Cl)cc2Cl)o1,,inactive: 14.6%

Compound,Potency,"activity change, negative = inhibition"
O=C(COC(=O)C1CC1)Nc1ccc(N=Nc2ccccc2)cc1,"inconclusive: 9.2 µM [activator, partial curve]",
CCn1ccc(C(=O)Oc2ccc(Cl)cc2)n1,,inactive: 14.1%
C=CCOc1ccc(C2/C(=C(\O)c3ccc4c(c3)CC(C)O4)C(=O)C(=O)N2CCN2CCOCC2)cc1OCC (centres undefined),,inactive: 2.89%
CCN(CC)S(=O)(=O)c1cc(NC(=O)C2CSC3(C)CCC(=O)N23)ccc1C (centres undefined),"inconclusive: 32.6 µM [inhibitor, single point]",
CCOC(=O)C1CN(S(=O)(=O)c2ccccc2)CCN1S(=O)(=O)c1ccccc1 (centres undefined),"inconclusive: 16.4 µM [inhibitor, partial curve, poor fit]",
CC1CCc2cc(F)ccc2N1S(=O)(=O)c1ccc(Cl)nc1 (centres undefined),"inconclusive: 32.6 µM [inhibitor, partial curve, poor fit]",
Cc1ccc(NS(=O)(=O)c2cc(OCC(N)=O)c(C)cc2Cl)cc1C,"inconclusive: 16.4 µM [inhibitor, partial curve, poor fit]",
COc1ccc(C)cc1NC(=O)CSc1nc2ccccc2nc1N1CCCCC1,"inconclusive: 29.1 µM [activator, single point]",
CN(C)c1ccc(/C=N/NC(=O)CSc2ccccn2)cc1,"inconclusive: 18.3 µM [activator, partial curve]",
CCCN1C=CC(=C2C(=O)c3ccccc3C2=O)C=C1,"inconclusive: 0.13 µM [activator, partial curve, poor fit]",
Cc1nc(C)c(C(=O)N/N=C/c2c[nH]c3ccccc23)s1,"inconclusive: 14.6 µM [inhibitor, partial curve]",
Cc1cc(NC(=O)C2CC2)ccc1NC(=O)c1cccs1,,inactive: 15.6%
Cc1nc2cc(-c3ccccc3)nn2c(C)c1CCC(=O)N1CCN(c2ccccn2)CC1,,inactive: 8.19%
CCOC(=O)c1cnc(SC2CCc3ccccc3C2=O)nc1N (centres undefined),"inconclusive: 20.6 µM [activator, single point]",
Oc1ccc(N2CCN(CC(O)c3ccccc3)CC2)cc1 (centres undefined),"inconclusive: 16.4 µM [inhibitor, partial curve, poor fit]",
CCc1nc(SCC(=O)Nc2ccccc2OC)c2c(C)c(C)sc2n1,"inconclusive: 6.51 µM [inhibitor, full curve, poor fit]",
CN(C)CCCN(C(=O)CCS(=O)(=O)c1ccccc1)c1nc2cc3c(cc2s1)OCO3,"inconclusive: 6.51 µM [inhibitor, full curve, poor fit]",
CCOc1nc(-c2ccccc2)ccc1-c1noc(COC)n1,"inconclusive: 29.1 µM [inhibitor, single point]",
CCC1Nc2ncnc(N3CCN(c4ccccc4)CC3)c2N(Cc2ccc(Br)cc2)C1=O (centres undefined),,inactive: -2.88%
O=C(Nc1ccc(NC(=O)C2CC2)cc1)c1cccs1,"inconclusive: 18.3 µM [activator, partial curve]",
COc1ccc(NS(=O)(=O)c2ccc(C)c(C(=O)N3CCCCCCC3)c2)cc1,,inactive: -20.3%
COc1ccccc1OCC(=O)N1CCCC(Nc2ccc(F)c(F)c2)C1 (centres undefined),,inactive: 10.8%
CCn1ncc([N+](=O)[O-])c1C(=O)N1CCCC1,"inconclusive: 23.1 µM [activator, partial curve, poor fit]",

Compound,Potency,"activity change, negative = inhibition"
CCN(CC)c1ccc(C(=O)OCC(=O)Nc2ccccc2-c2ccccc2)cc1,"inconclusive: 29.1 µM [inhibitor, single point]",
O=c1[nH]c(N/N=C/c2ccccc2)nc2ccccc12,"inconclusive: 7.31 µM [activator, partial curve]",
N#Cc1c(NC(=O)c2ccccc2)sc2c1CCCCC2,"inconclusive: 0.651 µM [activator, full curve]",
Cn1c(-c2ccc3ccccc3n2)[n+](C)c2ccccc21,"inconclusive: 1.03 µM [inhibitor, full curve, poor fit]",
COc1ccc2nc(C)cc(N3CCN(S(=O)(=O)c4ccccc4F)CC3)c2c1,"inconclusive: 29.1 µM [inhibitor, single point]",
O=c1c(-c2n[nH]c(=S)n2-c2ccccc2)cccn1Cc1cccc(Cl)c1,,inactive: 4.44%
Cn1c(N)c(C(=O)COC(=O)/C=C/c2ccccc2)c(=O)n(C)c1=O,,inactive: -0.58%
O=C(CSC1CCCCC1)N1CCN(c2ccccc2)CC1,"inconclusive: 25.9 µM [activator, partial curve, poor fit]",
COC(=O)[C@]1(Cc2ccccc2)N[C@H](CN(C)C(=O)c2ccccc2)[C@@H]2C(=O)N(Cc3ccccc3)C(=O)[C@@H]21,,inactive: -14.3%
CCOC(=O)c1c(NC(=O)C2=C(C)NC(=S)NC2c2ccc(F)cc2F)sc(C)c1C (centres undefined),"inconclusive: 20.6 µM [inhibitor, partial curve]",
N#Cc1nc(N2CCCC2)nc(N2CCCC2)n1,"inconclusive: 5.62 µM [inhibitor, full curve, poor fit]",
CCOCCCN(C(=O)CCC(=O)Nc1cc(C)on1)C(C(=O)NC(C)(C)CC)c1cccc(OC)c1OC (centres undefined),,inactive: 3.45%
COc1ccccc1CNc1ncnc2c1cnn2-c1ccccc1,"inconclusive: 29.1 µM [inhibitor, partial curve, poor fit]",
CC(=O)NC(=S)Nc1cc(C(F)(F)F)ccc1N1CCOCC1,,inactive: -23.5%
Cn1c(CCn2ccccc2=O)nc2cc(NC(=O)COc3ccccc3)ccc21,"inconclusive: 11.6 µM [activator, partial curve]",
COc1cccc(-c2cc(=O)c3cc(NC(=O)c4ccc(Cl)cc4)ccc3[nH]2)c1,"inconclusive: 1.16 µM [inhibitor, partial curve, poor fit]",
CC1CN(c2oc(-c3cccs3)nc2C#N)CC(C)O1 (centres undefined),"inconclusive: 29.1 µM [inhibitor, single point]",
COc1ccccc1CNC(=O)CNC(=O)c1ccc(Br)o1,,inactive: 1.13%
O=C(COc1ccc2ccc(=O)oc2c1)Nc1cccc(S(=O)(=O)N2CCCCC2)c1,"inconclusive: 10.3 µM [inhibitor, partial curve, poor fit]",
O=C(N/N=C/c1cc([N+](=O)[O-])ccc1O)c1cc(-c2ccccc2)nc2ccccc12,"inconclusive: 2.06 µM [inhibitor, full curve]",
CC(C)OC(=O)CSc1nc(N2CCOCC2)c2c(c1C#N)CC(C)(C)OC2,"inconclusive: 11.6 µM [inhibitor, partial curve]",
CC(C)C(C)NC(=O)COC(=O)c1cccc(C(=O)OCC(=O)NC(C)C(C)C)n1 (centres undefined),,inactive: -9.79%
Cc1ccc(N2CC(C(=O)N/N=C/c3c(F)cccc3Cl)CC2=O)cc1 (centres undefined),active: 9.2 µM,

# Reformatted as tab-separated lines: 3 of the compounds above
Compound	Potency	activity change, negative = inhibition
Cc1ccn(CC(=O)NC2CCCN(Cc3ccc(CC(C)C)cc3)C2)n1 (centres undefined)		inactive: 1.58%
O=c1c(-c2n[nH]c(=S)n2-c2ccccc2)cccn1Cc1cccc(Cl)c1		inactive: 4.44%
CC(=O)NC(=S)Nc1cc(C(F)(F)F)ccc1N1CCOCC1		inactive: -23.5%

# Reference: PubChem BioAssay AID504467 (National Center for Advancing Translational Sciences (NCATS), 2011)
